For assay [1], the target named is recombinant VEGF MiniTrap (dimer) MT5 (human). Kind of assay: affinity chromatography ligands.
The target is the same in assay [2]. The assay is described as follows: affinity chromatography, capture and low pH elution.

No constants are given. Whether binding was seen depends on the method and setting. Some binding calls cover weakened binding; strength is not graded here.

B1: mAb4 (a mouse anti-VEGFR1 mAb mouse IgG1) (antibody, V domains shown)
VH: EVQLVESGGDLVKPGGSLKLSCAASGFTFSDSGMSWVRQTPDKRLEWVATISSGGGYTYYSDSVEGRFTISRDNANNTLFLQMSSLKSEDTAMFYCARLGNYGGYYGMDYWGQGTSVTVSS
VL: DIQMTQSPSSLSASLGGKVTITCKTSQDSNKYIAWYQHKPGKGPRLLIHYTSTLQPGIPSRFSGSGSGRDYSFSISNLEPEDIATYYCLQYDNLWTFGGGTKLEIKR
Turning to B1, the binding result in assay [1] and in assay [2] was “binds” throughout.
